By UniProt entry, the sequences of proteins in these tests, tags left out. Where a name states a change or a piece, a line headed by the entry shows the natural chain unless it says otherwise.
UniProt Q06187, whole entry: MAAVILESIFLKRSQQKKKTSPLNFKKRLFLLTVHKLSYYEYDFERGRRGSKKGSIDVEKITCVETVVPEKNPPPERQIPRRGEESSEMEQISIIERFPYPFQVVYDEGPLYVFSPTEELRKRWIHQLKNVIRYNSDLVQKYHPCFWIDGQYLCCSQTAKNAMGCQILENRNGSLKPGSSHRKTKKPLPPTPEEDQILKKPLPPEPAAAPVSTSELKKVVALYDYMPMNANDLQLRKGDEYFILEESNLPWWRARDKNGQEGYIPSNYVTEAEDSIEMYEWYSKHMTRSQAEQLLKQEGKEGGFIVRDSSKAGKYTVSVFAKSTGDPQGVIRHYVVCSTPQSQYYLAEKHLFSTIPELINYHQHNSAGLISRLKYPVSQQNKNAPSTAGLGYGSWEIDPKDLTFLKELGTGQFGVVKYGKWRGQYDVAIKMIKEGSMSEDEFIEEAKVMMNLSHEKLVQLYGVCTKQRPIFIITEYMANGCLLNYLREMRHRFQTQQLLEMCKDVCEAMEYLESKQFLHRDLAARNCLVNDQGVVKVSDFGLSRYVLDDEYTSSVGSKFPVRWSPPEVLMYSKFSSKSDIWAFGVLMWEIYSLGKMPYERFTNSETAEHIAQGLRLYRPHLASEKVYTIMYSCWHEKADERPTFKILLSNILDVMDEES
UniProt Q06187, whole entry C481S: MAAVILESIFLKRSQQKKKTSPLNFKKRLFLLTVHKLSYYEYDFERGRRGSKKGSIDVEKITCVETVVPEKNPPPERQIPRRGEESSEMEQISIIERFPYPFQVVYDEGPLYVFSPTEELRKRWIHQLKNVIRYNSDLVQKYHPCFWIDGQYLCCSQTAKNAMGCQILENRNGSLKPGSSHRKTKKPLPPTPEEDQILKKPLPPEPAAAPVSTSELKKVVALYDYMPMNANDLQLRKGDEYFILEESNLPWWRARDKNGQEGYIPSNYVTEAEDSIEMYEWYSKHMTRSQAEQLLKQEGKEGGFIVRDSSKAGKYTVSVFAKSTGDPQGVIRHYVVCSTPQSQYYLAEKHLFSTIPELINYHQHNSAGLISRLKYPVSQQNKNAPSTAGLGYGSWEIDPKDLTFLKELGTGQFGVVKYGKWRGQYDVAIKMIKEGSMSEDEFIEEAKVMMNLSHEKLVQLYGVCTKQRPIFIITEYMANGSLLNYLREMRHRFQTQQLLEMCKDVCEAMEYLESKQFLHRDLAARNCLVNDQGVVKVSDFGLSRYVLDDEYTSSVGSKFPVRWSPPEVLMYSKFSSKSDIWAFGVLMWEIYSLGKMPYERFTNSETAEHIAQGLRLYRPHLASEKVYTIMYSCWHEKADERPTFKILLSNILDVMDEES

According to patent EP4825855A1, “COMPOUND CONTAINING PYRAZOLE RING AND BICYCLIC HETEROARYL GROUP, PHARMACEUTICAL COMPOSITION THEREOF AND USE THEREOF” (dated 2026):

Tests used:
BTK(C481S) kinase = BTK(C481S) kinase (Homo sapiens, UniProt Q06187, C481S); experiment: Inhibitory activity against BTK(C481S) kinase; settings: read-out: BTK(C481S) kinase inhibition IC50(nM )
Description: (§1) BTK(C481S) kinase solution (concentration: 0.006 ng/µL) was added to assay wells at 6 µL/well, and different compounds dissolved in DMSO were added to the assay wells separately using a nanoliter pipettor, such that the final concentrations of the compounds were 1000 nM to 0.244 nM. The wells were set in duplicate, and a control well was set. After a 30-min incubation of the above system, ATP (concentration: 50 µM) was mixed with ULight-poly GT substrate (manufacturer: PerkinElmer, concentration: 0.5 µM) in a ratio of 1:1, and the mixture was added to the assay wells at 4 µL/well. The resulting mixture was left to react at room temperature for 2 h, and then 5 µL of EDTA was added to terminate the reaction, followed by the addition of 5 µL of a detection antibody (manufacturer: PerkinElmer, concentration: 8 nM). The mixture was incubated at room temperature for 1 h. The assay was performed using a PerkinElmer Envision multifunctional microplate reader (excitation: 320 nm, emission: 615 nm/665 nm), and IC50 was calculated by four-parameter fitting. The test results are shown in Table 3, where A represents: the IC50 value ≤ 10 nM.

BTK(WT) kinase = BTK(WT) kinase (Homo sapiens, UniProt Q06187); experiment: Inhibitory activity against BTK(WT) kinase; settings: read-out: BTK(WT) kinase inhibition IC50(nM )
Description: as §1, with “BTK” for “BTK(C481S)”, “0.003” for “0.006”, “fitting.” for “fitting. The test results are shown in Table 3, where A represents: the IC50 value ≤ 10 nM.”

OCI-LY10 cells = experiment: Inhibitory activity against OCI-LY10 cell proliferation (CCK-8); settings: 72 h incubation
Description: OCI-LY10 cells in a good growth state were collected into a centrifuge tube, adjusted to a cell density of 9 × 10^4 cells/mL using an assay medium (1640 + 10% FBS), and seeded onto a 96-well plate (100 µL/well). The cells were incubated overnight in a cell incubator. Compounds were added using a nanoliter pipettor such that the final concentrations of the compounds were 1000 nM to 1.64 nM (the addition was performed in duplicate). Meanwhile, a control was set. After 72 h of incubation in the cell incubator, the assay reagent CCK-8 (manufacturer: Dojindo Laboratories; 10 µL/well) was added. After 4 h of incubation in the cell incubator, the absorbance values were measured at 450 nm on a PerkinElmer Envision microplate reader. A four-parameter analysis was performed, a dose-response curve was fitted, and IC50 was calculated. Table 1. Inhibitory activity against OCI-LY10 cell proliferation

| IC50 (BTK(C481S) kinase) [nM] | IC50 (BTK(WT) kinase) [nM] | IC50 (OCI-LY10 cells) [nM] | Compound |
| --- | --- | --- | --- |
| < 10 | < 10 | < 10 | [2H]C([2H])([2H])OC(c1nc(Nc2cnn(-c3ccc(CNC(=O)c4cc(F)cc5cccnc45)cc3)c2C(N)=O)ccc1N1CCN(C([2H])([2H])[2H])CC1)C1CC1 (stereo not drawn) |
| < 10 | < 10 | < 10 | COCCN1CCN(c2ccc(Nc3cnn(-c4ccc(CNc5nc(C)cc6c(F)ccc(OC)c56)cc4)c3C(N)=O)nc2C(O)C2CC2)CC1 (stereo not drawn) |
| < 10 | < 10 | < 10 | CC(O)c1nc(Nc2cnn(-c3ccc(CNC(=O)c4cc(F)cc5cccnc45)cc3)c2C(N)=O)ccc1N1CCN(C)CC1 (stereo not drawn) |

Structures were worked out from names or drawings and are uncertain.
